The supplement of paper PMC10331698
± gives the standard deviation of the averaged measurements. Most entries show no effect beyond the scatter of the controls.

Columns and labels:
Assay in all cases: level (log10 ratio to DMSO vehicle control); higher = higher biomarker level / cell amount than vehicle control
[1] = compound: OCCCC(F)(F)C(F)(F)C(F)(F)C(F)(F)C(F)(F)C(F)(F)C(F)(F)C(F)(F)F [3-(Perfluorooctyl)propanol] (in DMSO); settings: 2200 nM
Description: (§1)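 BioMAP Diversity Plus panel of 12 human primary cell co-culture systems (3C, 4H, LPS, SAg, BT, BF4T, BE3C, CASM3C, HDF3CGF, KF3CT, MyoF, Mphg). Compounds were added 1 h before stimulation and left for 24 h (MyoF 48 h; BT 72 h for soluble read-outs or 6 d for IgG). Biomarkers were read by ELISA, cytotoxicity by SRB, PBMC viability and proliferation by Alamar Blue. Each well value was divided by the mean of 8 DMSO control wells on the same plate and log10 transformed; duplicate blinded samples were tested at 4 concentrations.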

[2] = compound: FC(F)(F)C(F)(F)CNCC(F)(F)C(F)(F)F [Bis(1H,1H-perfluoropropyl)amine] (in DMSO); settings: 2200 nM
Description: as §1

[3] = compound: O=S(=O)(O)C(F)(F)C(F)(F)C(F)(F)C(F)(F)F [Perfluorobutanesulfonic acid] (in DMSO)
Description: as §1

[4] = compound: OCC(F)(F)OC(F)(F)C(F)(F)OC(F)(F)CO [1H,1H,8H,8H-Perfluoro-3,6-dioxaoctane-1,8-diol] (in DMSO); settings: 2200 nM
Description: as §1

[5] = compound: OCC(F)(F)C(F)(F)C(F)(F)C(F)F [1H,1H,5H-Perfluoropentanol] (in DMSO); settings: 2200 nM
Description: as §1

Hexafluoroglutaric acid = compound: O=C(O)C(F)(F)C(F)(F)C(F)(F)C(=O)O [Hexafluoroglutaric acid] (in DMSO)
Description: as §1

[6] = compound: OCC(F)(F)C(F)(F)C(F)(F)C(F)(F)C(F)(F)C(F)(F)CO [1H,1H,8H,8H-Perfluorooctane-1,8-diol] (in DMSO); settings: 2200 nM
Description: as §1

Perfluorohexanoic acid = compound: O=C(O)C(F)(F)C(F)(F)C(F)(F)C(F)(F)C(F)(F)F [Perfluorohexanoic acid] (in DMSO)
Description: as §1

[7] = compound: CNS(=O)(=O)C(F)(F)C(F)(F)C(F)(F)C(F)(F)C(F)(F)C(F)(F)C(F)(F)C(F)(F)F [N-Methylperfluorooctanesulfonamide] (in DMSO); settings: 2200 nM
Description: as §1

[8] = compound: O=C(O)CCC(F)(F)C(F)(F)C(F)(F)F [3:3 Fluorotelomer carboxylic acid] (in DMSO); settings: 2200 nM
Description: as §1

[9] = compound: C=C(C)C(=O)OCCC(F)(F)C(F)(F)C(F)(F)C(F)(F)C(F)(F)C(F)(F)F [6:2 Fluorotelomer methacrylate] (in DMSO); settings: 2200 nM
Description: as §1

[10] = compound: O=C(O)C(F)(F)C(F)(F)C(F)(F)OC(F)(C(F)(F)F)C(F)(F)F [Perfluoro-4-isopropoxybutanoic acid] (in DMSO); settings: 2200 nM
Description: as §1

[11] = compound: FC(F)(F)COC(OCC(F)(F)F)OCC(F)(F)F [tris(Trifluoroethoxy)methane] (in DMSO); settings: 2200 nM
Description: as §1

[12] = compound: FC(F)(F)C(F)(F)C(F)(F)C(F)(F)CCI [1H,1H,2H,2H-Perfluorohexyl iodide] (in DMSO); settings: 2200 nM
Description: as §1

[13] = compound: OCC(F)(F)C(F)(F)C(F)(F)C(F)(F)C(F)(F)C(F)(F)F [6:1 Fluorotelomer alcohol] (in DMSO); settings: 2200 nM
Description: as §1

[14] = compound: O=C(O)C(F)(OC(F)(F)C(F)(F)C(F)(F)F)C(F)(F)F [Ammonium perfluoro-2-methyl-3-oxahexanoate] (in Water)
Description: as §1

[15] = compound: O=C(O)C(F)(OC(F)(F)C(F)(OC(F)(F)C(F)(OC(F)(F)C(F)(F)C(F)(F)F)C(F)(F)F)C(F)(F)F)C(F)(F)F [Perfluoro-(2,5,8-trimethyl-3,6,9-trioxadodecanoic)acid] (in DMSO); settings: 370 nM
Description: as §1

| Test System | level (log10) [1] | level (log10) [2] | level (log10) ([3]; 2200 nM) | level (log10) ([3]; 6700 nM) | level (log10) ([3]; 20000 nM) | level (log10) ([3]; 60000 nM) | level (log10) [4] | level (log10) [5] | level (log10) (Hexafluoroglutaric acid; 2200 nM) | level (log10) (Hexafluoroglutaric acid; 6700 nM) | level (log10) (Hexafluoroglutaric acid; 20000 nM) | level (log10) (Hexafluoroglutaric acid; 60000 nM) | level (log10) [6] | level (log10) (Perfluorohexanoic acid; 2200 nM) | level (log10) (Perfluorohexanoic acid; 6700 nM) | level (log10) (Perfluorohexanoic acid; 20000 nM) | level (log10) (Perfluorohexanoic acid; 60000 nM) | level (log10) [7] | level (log10) [8] | level (log10) [9] | level (log10) [10] | level (log10) [11] | level (log10) [12] | level (log10) [13] | level (log10) ([14]; 2200 nM) | level (log10) ([14]; 6700 nM) | level (log10) ([14]; 20000 nM) | level (log10) ([14]; 60000 nM) | level (log10) [15] |
| --- | --- | --- | --- | --- | --- | --- | --- | --- | --- | --- | --- | --- | --- | --- | --- | --- | --- | --- | --- | --- | --- | --- | --- | --- | --- | --- | --- | --- | --- |
| KF3CT:CCL2/MCP-1 | 0.0005 ± 0.054 | 0.01 ± 0.03 | -0.0085 ± 0.023 | -0.032 ± 0.017 | -0.0095 ± 0.026 | 0.0135 ± 0.083 | 0.038 ± 0.042 | 0.008 ± 0.0042 | -0.0015 ± 0.028 | -0.0255 ± 0.04 | -0.0325 ± 0.067 | -0.0245 ± 0.0021 | 0.0275 ± 0.047 | -0.0105 ± 0.0078 | -0.0155 ± 0.019 | -0.0385 ± 0.018 | 0.001 ± 0.052 | 0.0095 ± 0.012 | 0.034 ± 0.073 | -0.025 ± 0.034 | 0.0045 ± 0.0092 | 0.0255 ± 0.066 | -0.006 ± 0.0028 | 0.01 ± 0.025 | 0.115 ± 0.023 | 0.086 ± 0.0057 | 0.088 ± 0.023 | 0.0775 ± 0.018 | -0.0255 ± 0.035 |
| KF3CT:CD54/ICAM-1 | -0.019 ± 0.038 | -0.002 ± 0.02 | 0.015 ± 0.028 | 0.0015 ± 0.029 | 0.0225 ± 0.012 | 0.0005 ± 0.00071 | 0.015 ± 0.014 | 0.0235 ± 0.019 | -0.017 ± 0.0071 | -0.0045 ± 0.00071 | -0.014 ± 0.0057 | -0.0015 ± 0.044 | -0.001 ± 0.038 | -0.002 ± 0.035 | 0.0055 ± 0.0064 | -0.002 ± 0.013 | -0.007 ± 0.011 | 0.018 ± 0.045 | 0.002 ± 0.023 | 0.0075 ± 0.015 | 0.009 ± 0.014 | -0.001 ± 0.025 | 0.0095 ± 0.0078 | 0.0005 ± 0.021 | 0.012 ± 0.0014 | 0.022 ± 0.0099 | 0.029 ± 0.0071 | 0.017 ± 0.0057 | 0.0145 ± 0.00071 |
| KF3CT:CXCL8/IL-8 | 0.0035 ± 0.042 | -0.007 ± 0.0042 | 0.001 ± 0.0085 | -0.031 ± 0.02 | -0.002 ± 0.0042 | 0.004 ± 0.0071 | 0.0155 ± 0.00071 | 0.026 ± 0.0085 | -0.012 ± 0.037 | -0.0115 ± 0.025 | -0.006 ± 0.0057 | -0.0135 ± 0.0021 | 0.0015 ± 0.028 | -0.0015 ± 0.042 | -0.005 ± 0.014 | 0.009 ± 0.04 | 0.031 ± 0.013 | -0.001 ± 0.0014 | 0.0065 ± 0.00071 | -0.007 ± 0.0014 | 0.002 ± 0.024 | 0.0065 ± 0.012 | 0.003 ± 0.038 | -0.003 ± 0.0042 | 0.003 ± 0.0099 | 0.0175 ± 0.036 | 0.0135 ± 0.00071 | 0.0165 ± 0.0092 | 0.0075 ± 0.026 |
| KF3CT:CXCL9/MIG | -0.009 ± 0.028 | 0.0065 ± 0.005 | 0.016 ± 0.027 | 0.0185 ± 0.029 | 0.021 ± 0.017 | 0.0345 ± 0.0078 | -0.001 ± 0.0071 | -0.002 ± 0.0099 | -0.004 ± 0.0028 | -0.007 ± 0.0014 | -0.0075 ± 0.0064 | -0.0065 ± 0.0021 | 0.002 ± 0.0014 | 0.0045 ± 0.0035 | 0.0075 ± 0.0064 | 0.0035 ± 0.012 | 0.0095 ± 0.012 | 0.01 ± 0.0014 | 0.0005 ± 0.00071 | 0.0135 ± 0.0092 | 0.01 ± 0.0014 | 0.013 ± 0.031 | 0.0105 ± 0.0092 | -0.0015 ± 0.0078 | -0.0015 ± 0.0064 | -0.007 ± 0.011 | 0.0025 ± 0.00071 | 0.0005 ± 0.0021 | -0.0045 ± 0.005 |
| KF3CT:CXCL10/IP-10 | -0.009 ± 0.021 | -0.0025 ± 0.005 | 0.034 ± 0.037 | 0.0305 ± 0.025 | 0.0385 ± 0.028 | 0.0405 ± 0.019 | 0.0005 ± 0.0021 | 0.0005 ± 0.005 | -0.0035 ± 0.013 | -0.001 | -0.01 ± 0.0014 | 0.005 ± 0.0014 | 0.006 ± 0.0085 | 0.005 ± 0.0028 | 0.0045 ± 0.0092 | 0.0045 ± 0.005 | 0.017 ± 0.0014 | 0.007 ± 0.031 | -0.0025 ± 0.0078 | 0.033 ± 0.0071 | 0.0255 ± 0.0092 | 0.012 ± 0.023 | 0.023 ± 0.031 | -0.0035 ± 0.005 | -0.009 ± 0.0042 | -0.017 ± 0.0085 | 0.004 ± 0.0057 | 0.005 ± 0.0042 | -0.0005 ± 0.0021 |
